Data published in patent US20130012527A1, “PREQ1 RIBOSWITCHES AND METHODS AND COMPOSITIONS FOR USE OF AND WITH PREQ1 RIBOSWITCHES” (YALE UNIVERSITY, priority 2007, published 2013).
At least one compound was matched to its structure with a doubt left.

What was measured:
Format in all cases: binding, B. subtilis
36 queC RNA = experiment: In-line probing analysis of 36 queC RNA (P0 deleted)
wild-type 80 queC RNA = experiment: In-line probing analysis of wild-type 80 queC RNA; conditions: 1 μM
Source text: This possibility was examined by comparing the ligand binding characteristics of a wild-type queC construct (80 queC) with those of two mutant RNAs in which absolutely conserved cytidine residues were individually replaced with uridines (FIG. 6a). 2,6-diaminopurine was included in the panel of test compounds since it was previously established that the 2-amino group was critical for ligand recognition by the preQ1 aptamer (FIG. 4c). It was therefore anticipated that compounds lacking this moiety, such as adenine or 7-aminomethyl-7-deazaadenine, might not bind detectably, despite their potential for base pairing with a uridyl discriminator residue.
In-line probing analysis. […] .

[1] = test system: M1 RNA (80 queC, cytidine 34 replaced with uridine); experiment: In-line probing analysis of 80 queC mutant M1; conditions: M1 (C34U)

Compound: NCC1C=Nc2nc(N)[nH]c(=O)c21 (centres unmarked) [preQ1, 7-aminomethyl-7-deazaguanine]
- structure modulation (36 queC RNA; 10 μM preQ1): structure modulation occurs
- Kd (36 queC RNA; structure modulation at two selected sites): ~50 nM
- structure modulation (wild-type 80 queC RNA): structure modulation occurs
- structure modulation ([1]; 1 μM): No structure modulation is observed
- binding to M1 RNA ([1]; in words): no binding
